According to PubChem BioAssay AID1347414 (National Center for Advancing Translational Sciences (NCATS), 2020):
The shares of active, inactive and inconclusive entries below differ from those in the screen. Where the call is inconclusive, the potency comes from a doubtful curve fit. The source made the active and inactive calls. Calls come from the whole dose curve; as a rule, active = well fitted inhibition curve with a large enough effect; inconclusive = small, poorly fitted or top-dose-only effect; inactive = no such curve, though single readings can be large or run the other way.

Assay: qHTS to identify inhibitors of the type 1 interferon - major histocompatibility complex class I in skeletal muscle: Secondary screen by immunofluorescence; note: nearly all actives have a fitted effect of over 70% in size
Conditions: C25cl48 myoblasts, IFN-b induced HLA-ABC immunofluorescence, 24 h, Viability; series mostly up to 49.8 µM
Summary of the method: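 HLA-ABC immunofluorescence, with nuclear and cell-body stains, was quantified by laser scanning cytometry. Read-out followed 24 h of IFN-beta (4.0 ng/ml) stimulation of C25cl48 human myoblasts with compounds titrated 1:3 over 11 points from 50 uM, with ruxolitinib as inhibitor control.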
Potency is the fitted concentration of half-maximal effect.

SMILES	Potency
CCCCC(=O)O[C@]1(C(=O)CO)[C@@H](C)C[C@H]2[C@@H]3CCC4=CC(=O)C=C[C@]4(C)[C@@]3(F)[C@@H](O)C[C@@]21C	inactive
CCn1nnc2c(N3CCOCC3)nc(-c3ccc(NC(=O)Nc4ccc(C(=O)N5CCN(C)CC5)cc4)cc3)nc21	inconclusive: 45.8 µM [cytotoxic, single point]
OC1CCC(Oc2cccc3cnc(Nc4ccc5nc[nH]c5c4)nc23)CC1 (stereo not given)	inactive
C[C@]12C=CC(=O)C=C1CC[C@H]1[C@@H]3C[C@@H](O)[C@](O)(C(=O)CO)[C@@]3(C)C[C@H](O)[C@@]12F	inactive
CCN(CC)Cc1ccc2cc(COC(=O)Nc3ccc(C(=O)NO)cc3)ccc2c1	inconclusive: 51.4 µM [cytotoxic, single point]
CCC[C@H](NC(=O)/C(C#N)=C/c1cccc(Br)n1)c1ccccc1	inconclusive: 11.5 µM [cytotoxic, partial curve, poor fit]
CN1CCN(Cc2ccc(NC(=O)Nc3ccc(Oc4cc(NC(=O)C5CC5)ncn4)cc3)cc2C(F)(F)F)CC1	inconclusive: 16.2 µM [cytotoxic, partial curve, poor fit]
CCN(CC)CCOc1ccc(Nc2ncc3cc(-c4c(Cl)cccc4Cl)c(=O)n(C)c3n2)cc1	active: 9.13 µM
CC(=O)c1cnc2ccc(-c3cc(Cl)c(O)c(Cl)c3)nc2c1NC1CCC(CN(C)C)CC1 (stereo not given)	active: 14.5 µM
CC(C)C[C@H](NC(=O)[C@H](CCc1ccccc1)NC(=O)CN1CCOCC1)C(=O)N[C@@H](Cc1ccccc1)C(=O)N[C@@H](CC(C)C)C(=O)[C@@]1(C)CO1	inconclusive: 45.8 µM [cytotoxic, single point]
Cc1cc(-n2c(=O)ccc3cnc4[nH]ccc4c32)ccc1F	inactive
COc1nnc2ccc(N3CCC(c4ccc(OCCN5CCN(C)C(=O)[C@H]5C)cc4)CC3)nn12	inactive
Cc1cc(Nc2nc(N[C@@H](C)c3ncc(F)cn3)ncc2Cl)n[nH]1	inconclusive: 28.9 µM [cytotoxic, partial curve]
CS[C@H]1SC[C@@H]2C(=O)N(C)[C@H](C(C)C)C(=O)OC[C@H](NC(=O)c3cnc4ccccc4n3)C(=O)N[C@H](C)C(=O)N(C)[C@H]1C(=O)N(C)[C@H](C(C)C)C(=O)OC[C@H](NC(=O)c1cnc3ccccc3n1)C(=O)N[C@H](C)C(=O)N2C	inactive
C[C@H](NC(=O)/C(C#N)=C/c1cccc(Br)n1)c1ccccc1	active: 12.9 µM
CN(C)C/C=C/C(=O)Nc1cccc(C(=O)Nc2cccc(Nc3ncc(Cl)c(-c4c[nH]c5ccccc45)n3)c2)c1	inconclusive: 7.26 µM [cytotoxic, full curve, poor fit]
CC(=O)[C@]1(O)Cc2c(O)c3c(c(O)c2[C@@H](O[C@H]2C[C@H](N)[C@H](O)[C@H](C)O2)C1)C(=O)c1ccccc1C3=O	inconclusive: 4.08 µM [cytotoxic, full curve, poor fit]
COc1cccc2c1C(=O)c1c(O)c3c(c(O)c1C2=O)C[C@@](O)(C(C)=O)C[C@@H]3O[C@H]1C[C@H](N)[C@H](O)[C@H](C)O1	inconclusive: 28.9 µM [cytotoxic, partial curve, poor fit]
Cc1c[nH]c2nc(Nc3ccc(N4CCN(C)CC4)c(F)c3)nc(-c3cccc(CC#N)c3)c12	inconclusive: 20.5 µM [cytotoxic, partial curve, poor fit]
C1=C/COCc2cc(ccc2OCCN2CCCC2)Nc2nccc(n2)-c2cccc(c2)COC/1	active: 11.5 µM

A few values from the results shown.
Value for CCn1nnc2c(N3CCOCC3)nc(-c3ccc(NC(=O)Nc4ccc(C(=O)N5CCN(C)CC5)cc4)cc3)nc21 under Potency: inconclusive: 45.8 µM [cytotoxic, single point]
Value for C[C@H](NC(=O)/C(C#N)=C/c1cccc(Br)n1)c1ccccc1 under Potency: active: 12.9 µM
